# Source: article PMC6185109
# No constants are given. Whether binding was seen depends on the method and setting. In cells and extracts the contact can be indirect. These calls come from enrichment with a bait or labelling near it, and not all partners need be listed. For some assays here: A no says only that the protein was not detected with the bait. Where a sequence is shown, tags or fusion partners need not be part of it.
# T1: FLAG-tagged SNF2 domain of SUUR (amino acids 1 to 278) fused to the SV40 NLS (Drosophila melanogaster) (UniProt Q9VTE2)
# T1 sequence: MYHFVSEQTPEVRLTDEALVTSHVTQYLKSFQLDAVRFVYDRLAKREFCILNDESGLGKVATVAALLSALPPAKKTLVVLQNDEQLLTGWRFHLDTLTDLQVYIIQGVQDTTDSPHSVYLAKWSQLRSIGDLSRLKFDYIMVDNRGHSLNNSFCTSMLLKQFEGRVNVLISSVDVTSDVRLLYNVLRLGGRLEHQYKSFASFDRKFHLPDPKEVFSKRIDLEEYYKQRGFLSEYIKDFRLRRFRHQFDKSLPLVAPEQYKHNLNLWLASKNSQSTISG
# T2: FLAG-tagged full-length SUUR (Suppressor of Underreplication protein) (Drosophila melanogaster) (UniProt Q9VTE2)
# T2 sequence: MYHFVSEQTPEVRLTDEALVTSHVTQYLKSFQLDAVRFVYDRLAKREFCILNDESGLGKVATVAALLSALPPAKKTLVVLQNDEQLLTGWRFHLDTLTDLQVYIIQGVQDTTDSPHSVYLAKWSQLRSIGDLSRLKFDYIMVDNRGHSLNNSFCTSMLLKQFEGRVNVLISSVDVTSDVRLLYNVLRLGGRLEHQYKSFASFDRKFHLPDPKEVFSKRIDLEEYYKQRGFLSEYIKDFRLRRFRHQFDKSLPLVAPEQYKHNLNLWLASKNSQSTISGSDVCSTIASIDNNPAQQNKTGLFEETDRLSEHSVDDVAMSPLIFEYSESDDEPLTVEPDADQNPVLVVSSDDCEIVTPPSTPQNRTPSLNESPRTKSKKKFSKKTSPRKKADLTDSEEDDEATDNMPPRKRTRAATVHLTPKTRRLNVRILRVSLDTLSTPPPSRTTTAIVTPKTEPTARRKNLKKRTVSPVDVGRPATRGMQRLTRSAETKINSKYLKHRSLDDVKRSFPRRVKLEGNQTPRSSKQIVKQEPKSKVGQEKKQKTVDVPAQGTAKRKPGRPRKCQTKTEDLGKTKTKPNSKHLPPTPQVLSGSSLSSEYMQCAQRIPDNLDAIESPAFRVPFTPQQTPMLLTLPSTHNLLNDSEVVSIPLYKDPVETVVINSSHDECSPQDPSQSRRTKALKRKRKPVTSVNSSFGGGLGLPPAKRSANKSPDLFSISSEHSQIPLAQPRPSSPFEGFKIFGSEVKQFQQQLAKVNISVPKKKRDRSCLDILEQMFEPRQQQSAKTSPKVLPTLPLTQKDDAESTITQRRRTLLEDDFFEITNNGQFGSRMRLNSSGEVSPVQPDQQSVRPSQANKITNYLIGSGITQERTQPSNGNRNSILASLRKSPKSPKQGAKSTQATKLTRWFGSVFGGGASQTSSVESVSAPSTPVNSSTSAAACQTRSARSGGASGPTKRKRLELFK
# B1: Rif1 (Rap1-interacting factor 1) (protein, UniProt Q9XZ34 1-1416)
# chain: MDVDFGAQAGQSYRTVQLSAKEVLAAGRRQHYCNMIDLLASSCKSSGLIATSFTDDELVEFWLGDILPLMFDADRKIQDCAVAALAEALVALDVSVIHSAKCWPQIRSEFVDKYTIIIGEMRDAKNSNWHKIWTLLVQIMDEDLLRGCVYINKFLALVELGFRNPDNGVRSEAFLCWRVLIKIFAAYDELTSAKRLRLLLIPLRTSQSRSSHVSGIKLRVWWYLLSCLDHELPKSFDSAVEHFLAFMLGGGPRNLATGLAHNYQTARELALPCLVALWGVESSEPLQRLMRELRLETLVQPSPLMSVEVFQQHWKPLLAAAVSGLKLLTENDATEAEQLLLQLLVRNLCLAMFRLAVAPFNVACCSEIEKILQAEDNSGGRVVRALFNTIAADNLVMERVSGSDHLDVLEAYLKLVLKSKTEVPAAILQRSIACIFAVDRIEANNQNEFRMLGSFAELLMQANDEEDFEGFAFKLQVWRQVSQALSNYLRNNALEYRVAHNASLLDTWLLWPLQTLAAFAGRRASNSFDASFCDQWRQLVNAGQNAPGRKKFLTDLKATLTDLLKSKDEPLFAELFDAYVTSLIKFGLCKEAPLYKDVFGLLQTIFEQPSSQKTLEACLNTLRNLVVELRQNELMVVFDSLKPTLSSGIQCWNKMKCEGGFLEEWKRGIQEKFRKLPMKTMANQLKELFKADDLFVIIPSVWSLNPEKLTDRQKERFAEKSDIPALYNDMSQSQDSASIKPWTPKKVVIAKSKQGELALTGKDDNGEVIDITASEESEKEPVRVDVVTPIRKKPGRKSQAQKELEAAARAASLAEEPPKRQTRTRAAQKETEQVAQPQPAFEPQLRSPKKLPPSPVVQSTAAAVKQAKVAKPTPVVVIAQSEDLFPEVAAEPEPQPEPVKKPDPVPETTQLTPPDVPLEAVPSTQLPGSSGDPAASAGAVAAGEMSPKKSGTRIYNLSSPPDRKQTNNSSSPTLRPKPTGHLTGRGAQLINMIRNKKLDAASGSPYACMSTSRLVHQVTPARAQDRAEQVSTPTSELNELTGTDHTSTPIQAPPSKDLLVFSKRLPSPSASPSVSILKRKLRCESLDDVTLDSPALKRKRVSFHDPPVSVTKEYLRDAEETRSSLKPKRCLLMDKVAQTTEMRQALRRRGRLDSIIEIERFASEQTARTATTDKSLDKSTGEAPEEDAFTSLKWNDTGNAHNISISEEPVKAMEVESELETAGQDLAIMDPEAALDLAVAQLPLESVLQRYFDKSPLKSAGMLAKFLSAQMTANEKLKTNVLETLSENHSKDFLDHAVRENLSSVVCDRLNPTSVLEYVCAKSKISASCRNGLLAQVPEILKSGPRSDSERLAFVQQLMVQCSPGDDLLLDLIDLLMRTRRERNNSTSTHISKGVVSAVGSPDNVAETAADSSSNL
# What was measured:
# [1] = molecular target: T1, FLAG-tagged SNF2 domain of SUUR (amino acids 1 to 278) fused to the SV40 NLS (Drosophila melanogaster); test: affinity purification with mass spectrometry; heat-shocked 0-24 hr embryos fixed 20 min in 2% formaldehyde, nuclei sonicated, cleared lysate on anti-FLAG M2 affinity gel 2 hr at 4°C, washed in LB3 and LB3 with 1M NaCl, eluted with 3X FLAG peptide; Oregon R as no-FLAG control; three biological replicates
# [2] = molecular target: T2, FLAG-tagged full-length SUUR (Suppressor of Underreplication protein) (Drosophila melanogaster); test: as above
binder,measurement,setting,value
B1,binding,[1],no binding
same,binding,[2],binds
